Measurements from patent EP4484444A1.
Results are given in words; binding and its absence hold for the method and conditions named. Some results given as binding are weak or reduced against the parent protein; the word gives no strength. Tags and fused reporters may be left off the sequences shown. Each block holds one binder with its values, some of them ahead of it.

Protein sequences, listed by entry. Tags and fused reporters are not part of them. Chains listed by the source or under a name are the forms on record and can include a tag or linker. Residues count along the entry.
mini-procollagen III (fused to a N-terminal c-myc tag) (P02461, residues 1098-1466): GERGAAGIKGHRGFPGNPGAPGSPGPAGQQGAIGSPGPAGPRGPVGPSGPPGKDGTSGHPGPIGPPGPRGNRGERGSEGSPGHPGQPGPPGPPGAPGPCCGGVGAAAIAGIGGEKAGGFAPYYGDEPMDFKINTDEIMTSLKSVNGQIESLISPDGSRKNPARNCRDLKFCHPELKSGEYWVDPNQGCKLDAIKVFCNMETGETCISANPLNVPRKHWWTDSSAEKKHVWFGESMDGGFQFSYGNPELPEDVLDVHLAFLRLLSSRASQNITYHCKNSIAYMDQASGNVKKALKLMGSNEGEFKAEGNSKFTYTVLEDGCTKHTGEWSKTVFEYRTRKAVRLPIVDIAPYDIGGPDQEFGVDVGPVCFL
C-propeptide III (C-propeptide of procollagen III) (P02461, residues 1222-1466): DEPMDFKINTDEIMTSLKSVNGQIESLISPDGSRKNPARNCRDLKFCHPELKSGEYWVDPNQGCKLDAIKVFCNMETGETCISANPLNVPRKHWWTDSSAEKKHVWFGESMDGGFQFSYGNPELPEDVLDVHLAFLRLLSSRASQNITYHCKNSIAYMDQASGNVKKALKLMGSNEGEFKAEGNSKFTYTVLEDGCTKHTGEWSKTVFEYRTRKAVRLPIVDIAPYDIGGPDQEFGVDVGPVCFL

Legend:
[1] = biological target: mini-procollagen III (fused to a N-terminal c-myc tag) (UniProt P02461); test: SPR, PCPE-2 injected over immobilized mini-procollagen III
[2] = biological target: mini-procollagen III (fused to a N-terminal c-myc tag) (UniProt P02461); test: SPR, legend of Fig. 19
[3] = biological target: C-propeptide III (C-propeptide of procollagen III) (UniProt P02461); test: SPR co-injection over immobilized C-propeptide III

- binding [1]: binds
- binding [2]: binds
B1: recombinant human PCPE-2 (procollagen C-proteinase enhancer 2) fused to a 6 Histidine-tag at the N-terminus (protein)
chain: HHHHHHQSPERPVFTCGGILTGESGFIGSEGFPGVYPPNSKCTWKITVPEGKVVVLNFRFIDLESDNLCRYDFVDVYNGHANGQRIGRFCGTFRPGALVSSGNKMMVQMISDANTAGNGFMAMFSAAEPNERGDQYCGGLLDRPSGSFKTPNWPDRDYPAGVTCVWHIVAPKNQLIELKFEKFDVERDNYCRYDYVAVFNGGEVNDARRIGKYCGDSPPAPIVSERNELLIQFLSDLSLTADGFIGHYIFRPKKLPTTTEQPVTTTFPVTTGLKPTVALCQQKCRRTGTLEGNYCSSDFVLAGTVITTITRDGSLHATVSIINIYKEGNLAIQQAGKNMSARLTVVCKQCPLLRRGLNYIIMGQVGEDGRGKIMPNSFIMMFKTKNQKLLDALKNKQC

- binding [3]: binds
B2: human BMP-1 (bone morphogenetic protein-1) fused to a C-terminal Flag tag (enzyme, UniProt P13497-2 121-730, looked up, not shown: small tags and cut ends)
chain: AATSRPERVWPDGVIPFVIGGNFTGSQRAVFRQAMRHWEKHTCVTFLERTDEDSYIVFTYRPCGCCSYVGRRGGGPQAISIGKNCDKFGIVVHELGHVVGFWHEHTRPDRDRHVSIVRENIQPGQEYNFLKMEPQEVESLGETYDFDSIMHYARNTFSRGIFLDTIVPKYEVNGVKPPIGQRTRLSKGDIAQARKLYKCPACGETLQDSTGNFSSPEYPNGYSAHMHCVWRISVTPGEKIILNFTSLDLYRSRLCWYDYVEVRDGFWRKAPLRGRFCGSKLPEPIVSTDSRLWVEFRSSSNWVGKGFFAVYEAICGGDVKKDYGHIQSPNYPDDYRPSKVCIWRIQVSEGFHVGLTFQSFEIERHDSCAYDYLEVRDGHSESSTLIGRYCGYEKPDDIKSTSSRLWLKFVSDGSINKAGFAVNFFKEVDECSRPNRGGCEQRCLNTLGSYKCSCDPGYELAPDKRRCEAACGGFLTKLNGSITSPGWPKEYPPNKNCIWQLVAPTQYRISLQFDFFETEGNDVCKYDFVEVRSGLTADSKLHGKFCGSEKPEVITSQYNNMRVEFKSDNTVSKKGFKAHFFSEKRPALQPPRGRPHQLKFRVQKRNRTPQ
